# Measurements reported in article doi:10.1101/2025.01.06.631460 (bioRxiv, 2025).
# The chains behind the UniProt entries cited, without tags or fusion partners. Residues count along the entry.
# UniProt O22476, residues 24-1196: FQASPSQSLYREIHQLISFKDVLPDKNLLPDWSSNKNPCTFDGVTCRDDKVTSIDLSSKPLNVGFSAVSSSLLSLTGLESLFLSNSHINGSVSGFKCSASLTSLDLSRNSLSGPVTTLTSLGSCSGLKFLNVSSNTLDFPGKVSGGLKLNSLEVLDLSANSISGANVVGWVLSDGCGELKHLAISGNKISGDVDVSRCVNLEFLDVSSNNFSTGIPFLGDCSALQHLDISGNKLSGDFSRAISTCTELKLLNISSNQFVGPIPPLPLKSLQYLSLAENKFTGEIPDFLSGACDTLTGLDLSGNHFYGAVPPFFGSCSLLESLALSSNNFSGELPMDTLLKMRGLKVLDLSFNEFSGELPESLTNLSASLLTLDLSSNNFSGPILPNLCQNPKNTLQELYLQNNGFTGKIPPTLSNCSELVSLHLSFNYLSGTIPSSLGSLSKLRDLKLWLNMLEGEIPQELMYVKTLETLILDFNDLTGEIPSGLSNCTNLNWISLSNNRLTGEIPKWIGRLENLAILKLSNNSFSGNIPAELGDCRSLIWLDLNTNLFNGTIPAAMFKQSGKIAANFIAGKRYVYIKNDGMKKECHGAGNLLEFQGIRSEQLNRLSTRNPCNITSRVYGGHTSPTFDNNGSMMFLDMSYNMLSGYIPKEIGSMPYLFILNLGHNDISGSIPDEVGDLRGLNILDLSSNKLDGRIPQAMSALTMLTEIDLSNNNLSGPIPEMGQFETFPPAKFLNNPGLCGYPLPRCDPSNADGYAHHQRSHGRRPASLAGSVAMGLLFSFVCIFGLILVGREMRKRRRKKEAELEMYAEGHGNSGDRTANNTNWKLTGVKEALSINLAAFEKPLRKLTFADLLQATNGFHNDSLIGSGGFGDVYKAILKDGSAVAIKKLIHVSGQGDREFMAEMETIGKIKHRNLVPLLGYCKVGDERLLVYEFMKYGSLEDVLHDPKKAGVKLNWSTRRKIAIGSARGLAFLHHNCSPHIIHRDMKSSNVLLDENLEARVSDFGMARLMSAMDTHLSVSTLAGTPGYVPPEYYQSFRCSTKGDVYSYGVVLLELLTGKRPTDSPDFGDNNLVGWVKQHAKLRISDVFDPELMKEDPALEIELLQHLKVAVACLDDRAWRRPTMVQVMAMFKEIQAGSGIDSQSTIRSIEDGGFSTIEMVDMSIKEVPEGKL
# T1: CNGC2-TurboID (Arabidopsis thaliana) (UniProt O65718)
# T1 sequence: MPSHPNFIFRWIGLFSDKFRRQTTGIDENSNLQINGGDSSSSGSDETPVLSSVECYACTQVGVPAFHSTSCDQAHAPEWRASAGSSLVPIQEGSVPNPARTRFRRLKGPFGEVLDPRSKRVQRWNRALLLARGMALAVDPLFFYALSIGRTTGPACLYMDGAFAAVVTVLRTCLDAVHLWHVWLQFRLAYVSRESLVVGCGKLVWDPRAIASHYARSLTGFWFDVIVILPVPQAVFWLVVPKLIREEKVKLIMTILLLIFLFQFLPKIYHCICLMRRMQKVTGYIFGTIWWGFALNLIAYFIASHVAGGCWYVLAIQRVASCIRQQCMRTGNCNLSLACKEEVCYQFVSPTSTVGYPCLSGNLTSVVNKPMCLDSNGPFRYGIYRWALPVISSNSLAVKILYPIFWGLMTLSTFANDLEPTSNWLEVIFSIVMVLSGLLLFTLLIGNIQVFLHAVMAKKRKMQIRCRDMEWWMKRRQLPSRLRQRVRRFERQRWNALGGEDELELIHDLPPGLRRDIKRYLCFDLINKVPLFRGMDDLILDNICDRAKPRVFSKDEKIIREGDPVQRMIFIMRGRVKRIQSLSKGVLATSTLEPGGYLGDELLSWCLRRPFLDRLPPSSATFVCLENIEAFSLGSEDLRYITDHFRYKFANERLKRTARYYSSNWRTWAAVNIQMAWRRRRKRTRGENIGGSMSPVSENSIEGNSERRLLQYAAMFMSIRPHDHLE
# Biological target: T1, CNGC2-TurboID (Arabidopsis thaliana)
# Assay: proximity labelling
row,Molecule,binding
1,ARO3 (from UniProt O65640),binds
2,BRI1 (from UniProt O22476 24-1196) (receptor),binds

# The remaining lines, values ahead:
row,binding,Molecule
1,binds,ARO4
2,binds,"CNGC4 (protein, UniProt Q94AS9 1-694) MATEQEFTRASRFSRDSSSVGYYSEEDNTEEEDEEEEEMEEIEEEEEEEEEEDPRIGLTCGGRRNGSSNNNKWMMLGRILDPRSKWVREWNKVFLLVCATGLFVDPLFLYTLSVSDTCMCLLVDGWLALTVTALRSMTDLLHLWNIWIQFKIARRWPYPGGDSDGDTNKGGGTRGSTRVAPPYVKKNGFFFDLFVILPLPQVVLWVVIPSLLKRGSVTLVVSVLLVTFLFQYLPKIYHSIRHLRRNATLSGYIFGTVWWGIALNMIAYFVAAHAAGACWYLLGVQRSAKCLKEQCENTIGCDLRMLSCKEPVYYGTTVMVLDRARLAWAQNHQARSVCLDINTNYTYGAYQWTIQLVSSESRLEKILFPIFWGLMTLSTFGNLESTTEWSEVVFNIIVLTSGLLLVTMLIGNIKVFLHATTSKKQAMHLKMRNIEWWMKKRHLPIGFRQRVRNYERQRWAAMRGVDECEMVQNLPEGLRRDIKYHLCLDLVRQVPLFQHMDDLVLENICDRVKSLIFTKGETIQKEGDAVQRMLFVVRGHLQSSQLLRDGVKSCCMLGPGNFSGDELLSWCLRRPFVERLPPSSSTLVTLETTEAFGLDAEDVKYVTQHFRYTFVNEKVKRSARYYSPGWRTWAAVAVQLAWRRYKHRLTLTSLSFIRPRRPLSRCASLGEDKLRLYAAILTSPKPNPDDFDDY"

# These are yes or no findings as the source states them, for the method shown. Binding seen in cells or lysates may run through a third protein. A yes stands for co-enrichment or nearness to the bait. Other partners may have been found.
